Experimental data from patent US7585623B2, “Adiponectin promoter and use thereof” (Ono Pharmaceutical Co., Ltd., priority 2002, dated 2009).
For at least one compound, name, drawing or mass did not settle the structure.

Tested on: PPRE-mutated human adiponectin promoter
Experiment: Luciferase assay of PPRE-mutated promoter reporter in differentiated 3T3-L1 adipocytes
Format: cell-based
Conditions: 1 μM, mouse 3T3-L1 differentiated adipocytes, FIG. 13

CCc1ccc(CCOc2ccc(CC3SC(=O)NC3=O)cc2)nc1 (stereo not shown) [Pioglitazone]
effect of pioglitazone on luciferase activity: not observed at all
